Patent publication US20250213503A1, “TREATMENT OF CANCER WITH S1P RECEPTOR AGONISTS” (PRIOTHERA SAS, priority 2022, published 2025)
At least one structure is not confirmed: it was looked up by name or label, or the drawing left a doubt.

Tested on: leukemia cells (transformed pro-B cells)
Experiment: overall survival of leukemia-bearing mice
Format: in vivo, C57BL/6J male mice
Details: 3 mg·kg−1 intraperitoneally every second day; compared to CAR T cells+PBS or untreated

Q: Which overall survival does the source give for `NC(CO)(CO)CCc1ccc(Sc2cccc(OCc3ccccc3)c2)cc1Cl` [mocravimod, 2-amino-2-[4-(3-benzyloxyphenylthio)-2-chlorophenyl]ethyl-propane-1,3-diol] here?
A: statistically significant survival benefit
